Reference: PMC11147952
Results are given in words; binding and its absence hold for the method and conditions named. In cells and extracts the contact can be indirect. Some binding calls cover weakened binding; strength is not graded here. For some assays here: Sequences can lack the tags named with a protein.

Key:
[1] = target: T1, Regnase-1 D141N (catalytically inactive, lentivirally expressed in BMMCs) (mouse) (UniProt Q5D1E7); test: co-IP; BMMCs sequentially transduced with lentiviruses encoding Regnase-1 D141N and Regnase-3 D252N; immunoprecipitation with anti-Regnase-1, immunoblot with anti-Regnase-3
T1 sequence: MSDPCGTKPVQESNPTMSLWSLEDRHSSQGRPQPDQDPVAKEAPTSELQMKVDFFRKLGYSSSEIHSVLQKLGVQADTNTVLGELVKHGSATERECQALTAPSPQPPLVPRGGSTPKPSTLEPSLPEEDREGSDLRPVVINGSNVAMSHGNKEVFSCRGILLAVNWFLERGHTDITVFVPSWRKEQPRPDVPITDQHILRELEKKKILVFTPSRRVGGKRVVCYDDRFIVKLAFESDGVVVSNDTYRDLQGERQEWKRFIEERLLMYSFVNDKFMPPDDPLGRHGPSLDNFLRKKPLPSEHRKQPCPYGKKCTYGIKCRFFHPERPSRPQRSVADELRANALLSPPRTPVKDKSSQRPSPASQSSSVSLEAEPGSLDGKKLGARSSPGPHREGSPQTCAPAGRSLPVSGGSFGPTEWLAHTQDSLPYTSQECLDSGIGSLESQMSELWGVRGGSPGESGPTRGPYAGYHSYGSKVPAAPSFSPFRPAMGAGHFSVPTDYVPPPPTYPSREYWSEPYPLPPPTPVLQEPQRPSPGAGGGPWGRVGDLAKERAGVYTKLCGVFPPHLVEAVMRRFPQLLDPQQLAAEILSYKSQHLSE

[2] = target: T2, Regnase-1 (murine, untagged, pCDNA3, expressed in HEK293T) (mouse) (UniProt Q5D1E7); test: co-IP; HEK293T co-transfected with pCDNA3-Regnase-1 and pCDNA3-Regnase-3 (full-length or C-term truncated) for 48 h; immunoprecipitation with anti-Regnase-1 or anti-Regnase-3, isotype controls; immunoblot
T2 sequence: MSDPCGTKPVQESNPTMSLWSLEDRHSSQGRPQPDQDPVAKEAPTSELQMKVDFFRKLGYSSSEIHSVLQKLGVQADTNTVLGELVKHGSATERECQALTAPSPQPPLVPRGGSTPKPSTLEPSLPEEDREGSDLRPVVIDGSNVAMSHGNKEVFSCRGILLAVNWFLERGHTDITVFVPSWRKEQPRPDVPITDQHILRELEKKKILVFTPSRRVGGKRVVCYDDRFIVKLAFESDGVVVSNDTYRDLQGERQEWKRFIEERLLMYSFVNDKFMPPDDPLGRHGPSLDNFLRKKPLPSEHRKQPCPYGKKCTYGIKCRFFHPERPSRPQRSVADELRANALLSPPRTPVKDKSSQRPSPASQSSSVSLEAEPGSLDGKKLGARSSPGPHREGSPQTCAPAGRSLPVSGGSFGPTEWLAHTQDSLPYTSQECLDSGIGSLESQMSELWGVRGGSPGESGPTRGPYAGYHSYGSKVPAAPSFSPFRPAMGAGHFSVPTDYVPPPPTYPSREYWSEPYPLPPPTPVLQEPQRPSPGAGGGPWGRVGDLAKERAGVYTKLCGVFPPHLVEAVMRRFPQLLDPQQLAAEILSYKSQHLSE

| Binder | binding [1] | binding [2] |
| --- | --- | --- |
| Regnase-3 D252N (catalytically inactive, lentivirally expressed in BMMCs) (protein, UniProt Q5DTV4 1-884) MAAEKTLQEYGVLCIQEYRKSSKVESSARNSFMGLKDHLGHDLGHLYMESTDPQMSAAVPWPMVEKPTMDTVNSGKEGKGVSEENVSSGDSEGSTSSDHESEQLSSLSVEPCSLTKTHRQLCRSPCLEPRLLKHSDILQDFKPEESQTPSKEVKKPPDVVREYQTKLEFALKLGYSEEQVQLVLNKLGTDALINDILGELVKLGNKSEADQTVSTINSVMRETSSLESQRSESPMQEVVVDDGENLRPVVINGSNVAMSHGNKEVFSCRGIKLAVDWFLERGHKDITVFVPAWRKEQSRPDALITDQEILRKLEKEKILVFTPSRRVQGRRVVCYDDRFIVKLAFESDGIIVSNDNYRDLANEKPEWKKFIDERLLMYSFVNDKFMPPDDPLGRHGPSLDNFLRKKPIVPEHKKQPCPYGKKCTYGHKCKYYHPERGSQPQRSVADELRAMSRNTAAKTTNEGGLVKSNSVPCSTKADSTSDVKRGAPKRQSDPSIRTHVYQDIEEKLPTKNKLETRSVPSLVSIPATSTAKPQSTTPLSNGLPSGVHFPPQDQRPQGQYPPMMMATKNHGTPMPYEQYPKCDSPVDVGYYSMLNAYSNLSISGPRSPERRFSLDTDYRVNSVASDCSSEGSMSCGSSDSYVGYNDRSYVSSPDPQLEESLKCQHMHPHSRLNSQPFLQNFHDPLTRVQSYSHEEPKFHPKRPLPHLAMHLQHPAVGARSSCPGDYPSPPSSAHSKAPHLGRSLVATRIDSISDSRLYDSSPSRQRKPYSRQEGLGSWGRPSYGLEAYGYRQTYSLPDNSTPPCYESITFQSLPEQQEPTWRIPYCGMPHDPPRYQDNREKIFINLCNIFPPDLVRLVMKRNPHMTDAQQLAAAILVEKSQLGY | binds | – |
| Regnase-3 1-245aa (shortest C-terminal truncation, lacking the PIN domain) (domain or fragment, UniProt Q5DTV4 1-245) MAAEKTLQEYGVLCIQEYRKSSKVESSARNSFMGLKDHLGHDLGHLYMESTDPQMSAAVPWPMVEKPTMDTVNSGKEGKGVSEENVSSGDSEGSTSSDHESEQLSSLSVEPCSLTKTHRQLCRSPCLEPRLLKHSDILQDFKPEESQTPSKEVKKPPDVVREYQTKLEFALKLGYSEEQVQLVLNKLGTDALINDILGELVKLGNKSEADQTVSTINSVMRETSSLESQRSESPMQEVVVDDGEN | – | no binding |
